Measurements: patent publication US7666817B2, “Cellular libraries of peptide sequences (CLiPS) and methods of using the same” (The Regents of the University of California, priority 2005, dated 2010)
The name of at least one read-out is uncertain.

By UniProt entry, the sequences of proteins in these tests, tags left out. Residues count along the entry.
UniProt P98072, 801-1035 limits assumed: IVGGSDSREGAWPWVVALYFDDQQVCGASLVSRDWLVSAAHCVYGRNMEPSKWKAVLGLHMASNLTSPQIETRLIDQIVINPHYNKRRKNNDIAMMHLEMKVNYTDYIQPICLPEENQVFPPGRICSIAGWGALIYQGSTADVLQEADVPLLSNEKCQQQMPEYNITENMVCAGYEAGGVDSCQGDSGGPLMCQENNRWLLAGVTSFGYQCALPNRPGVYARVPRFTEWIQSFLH

Target: T1, enteropeptidase (Bos taurus, UniProt P98072)
T1 construct: the catalytic subunit light chain of enteropeptidase (EP) (New England Biolabs); purchased New England Biolabs
Assay: Enteropeptidase cleavage of synthetic fluorogenic Dabcyl/Edans peptide substrates (fluorimetry)
Assay type: biochemical
Conditions: Dabcyl-SGDRMW(E-Edans)-amide vs Dabcyl-DDDDKGG-(E-Edans)-amide, 1-4 μM peptide, 0.29 nM enteropeptidase

## SSGDRMWGG [EP 4.3]
  kcat/KM relative to DDDDK: more than five-fold higher
